This is one part of the list. Further columns of the screen follow, without active or inactive calls. Compounds called inactive in the main read-out are mostly missing here. The note in brackets gives the kind of curve behind each potency; many fits are weak.
test: Cell signaling CRE-BLA (Fsk stim); settings: CHO CRE-bla reporter (cAMP response element driving beta-lactamase), forskolin EC10, beta-lactamase ratio; measured here: 460 nm blue channel
In short: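 The 460nm/530nm emission ratio after CCF4 loading defined %Activity, from which AC50 values were obtained. CRE-bla CHO cells received compound dilution series together with an EC10 level of NKH 477 for 3 hours at 37 degrees Celsius.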

Compound | AC50
CCc1cc(-c2n[nH]c(C)c2-c2nc3ccccc3n2C)c(O)c(CN2CCN(C)CC2)c1O | 0.00316 µM [falling, full curve, poor fit]
CN(C)c1ncc2nc(-c3cccs3)c(=O)n(C)c2n1 | 5.01 µM [rising, partial curve]
O=c1c(CCc2ccccc2)nc2cnc(N3CCOCC3)nc2n1Cc1ccc(F)cc1 | 15.8 µM [rising, partial curve]
CCOC(=O)c1c(NC(=O)CC)sc(C(C)=O)c1C | 12.6 µM [rising, partial curve]
CCn1c(SCC(=O)c2cc(C)n(CC3CCCO3)c2C)nc2ccccc21 (stereo not drawn) | 10 µM [rising, partial curve]
COC(=O)c1ccccc1NC(=O)Nc1cccs1 | 1.26 µM [falling, full curve]
O=C(C[C@@H](C(=O)O)N1CCOCC1)c1ccccc1 | 3.98 µM [falling, partial curve, poor fit]
CCOc1ccc(-n2c(SCC(=O)Nc3ccc4c(c3)OCCO4)nc3c(c2=O)SCC3)cc1 | 25.1 µM [rising, single point]
Cc1sc2nc(CN3CCOCC3)nc(NS(=O)(=O)c3ccc4c(c3)OCCO4)c2c1C | 10 µM [rising, partial curve]
O=C1COc2ccc(C(=O)COC(=O)c3ccc4ccccc4n3)cc2N1 | 0.00794 µM [falling, full curve, poor fit]
COc1ccc(-n2c(SCC#N)nnc2-c2ccc(NS(=O)(=O)c3ccc(C)cc3)cc2)cc1 | 3.98 µM [rising, single point]
O=C(CCNS(=O)(=O)c1cccc2nsnc12)N1CC(=O)N(CCc2ccccc2)C(=O)C1 | 0.631 µM [falling, partial curve]
O=C(CSc1ncnc2c1oc1ccccc12)c1cccs1 | 15.8 µM [rising, single point]
CCOC(=O)c1c(C2CC2)csc1NC(C)=O | 25.1 µM [rising, single point]
O=C(CN1C(=O)COc2ccccc21)NCCN1CCc2ccccc2C1 | 0.126 µM [falling, full curve, poor fit]
Cc1scc(C(=O)Nn2cnnc2)c1-c1ccccc1 | 0.00316 µM [falling, full curve, poor fit]
Cc1cc2c(cc(C(=O)OCC(=O)NCc3cccs3)n2C(C)C)o1 | 10 µM [rising, partial curve]
O=C(c1cccc2cccc(O)c12)N1CCCCC1 | 0.0316 µM [falling, full curve]
O=c1c(-c2cccs2)nc2cnc(N3CCOCC3)nc2n1CCc1ccccc1 | 0.501 µM [rising, full curve]
Cc1c(CCC(=O)O)c(=O)oc2cc(O)ccc12 | 12.6 µM [rising, single point]
CCOC(=O)c1ccc(NC(=O)CSC2=NC(=O)C(CC)C(=O)N2)cc1 (stereo not drawn) | 3.16 µM [falling, single point]
COc1ccc(Nc2ncnc3c2cnn3-c2ccccc2)cc1OC | 10 µM [rising, partial curve]

Exported as labelled records: entries from further up.
COC(=O)c1ccccc1NC(=O)Nc1cccs1
  AC50: 1.26 µM [falling, full curve]
Cc1c(CCC(=O)O)c(=O)oc2cc(O)ccc12
  AC50: 12.6 µM [rising, single point]

Continuation.

Compound | AC50
Cc1nn(-c2ccccc2)c(C)c1C(=O)OCC(=O)NC(=O)NC1CCCCC1 | 12.6 µM [rising, partial curve]
O=C(CN1CCN(Cc2ccccc2Cl)C1=O)NC1CCCCCC1 | 10 µM [rising, partial curve]
CCCc1nc(N)c(C#N)c(-c2cccnc2)c1CC | 10 µM [rising, partial curve]
O=c1c2[nH]c3ccccc3c2ncn1Cc1cccnc1 | 25.1 µM [rising, single point]
O=C(CSc1nc2ccccc2c(=O)n1CCCC(=O)N1CCCC1)NCc1ccco1 | 10 µM [falling, single point]
CCOC(=O)c1cc(-c2cccnc2)nn1-c1ccccn1 | 2.51 µM [falling, partial curve, poor fit]
Cc1c(C(=O)Nc2ccccc2Cl)oc2ccc(S(=O)(=O)N3CCC4(CC3)OCCO4)cc12 | 25.1 µM [rising, single point]
CCCc1ccc(Oc2cn[nH]c2-c2ccc(O)cc2O)cc1 | 0.0631 µM [falling, partial curve, poor fit]
C=C(C)CSc1nnc(-c2cccc(S(=O)(=O)N(C)C)c2)n1-c1cc(OC)ccc1OC | 20 µM [rising, partial curve]
CNCC[C@@H](Oc1ccccc1C)c1ccccc1 | 25.1 µM [falling, single point]
CCCCn1c(SCC(=O)c2ccc3c(c2)OCCO3)nnc1-c1ccco1 | 15.8 µM [rising, single point]
COc1ccc2c(c1)[n+]([O-])c(/C(C)=N/NC(N)=S)c(C)[n+]2[O-] | 3.98 µM [rising, partial curve]
O=C(CSc1nc2ccccc2c2nc3ccccc3n12)NCc1ccco1 | 2.51 µM [rising, full curve]
COc1ccc2cc(C#N)c(NC(C)C)nc2c1 | 12.6 µM [rising, single point]
COc1ccc(C(=O)/C=C/Nc2cc(C)on2)c(OC)c1 | 25.1 µM [falling, single point]
O=c1c2ccccc2nc(-c2ccco2)n1Cc1ccccc1 | 6.31 µM [rising, partial curve]
O=c1c2ccccc2nc(COc2ccccc2)n1/N=C/c1ccco1 | 3.16 µM [falling, partial curve, poor fit]
CCCOc1ccc(C2C(C(=O)OC)=CN(CCOC)C=C2C(=O)OC)cc1 | 10 µM [rising, partial curve]
O=S(=O)(c1ccc2c(c1)OCCO2)N1CCC(n2cnc3cc(F)ccc32)CC1 | 3.98 µM [rising, partial curve]
COc1ccc(CCn2c(-n3nc(C)cc3C)nc3c2c(=O)[nH]c(=O)n3C)cc1 | 0.0631 µM [rising, full curve, poor fit]
C=CCc1cccc(CNc2nc3ccccc3n2CCN2CCOCC2)c1O | 6.31 µM [falling, full curve, poor fit]

— PubChem BioAssay AID662 (National Center for Advancing Translational Sciences (NCATS), 2007)
